Some of the results follow.
Assays:
Assay in all cases: log2 fold change, soluble protein after heating vs DMSO (PISA); higher = thermal stabilisation; K562 lysate, 10 uM; active = over 0.2 and 3.5 SD of the protein, either way, in both replicates (recomputed)
ibrutinib = compound: C=CC(=O)N1CCC[C@@H](n2nc(-c3ccc(Oc4ccccc4)cc3)c3c(N)ncnc32)C1 [ibrutinib]
Outline: (§1)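 K562 pellets were dounce-homogenised in PBS pH 7.4 containing 1 mM MgCl2, and the crude extract, at 1 mg/mL protein, was exposed to 10 μM compound for 30 min. Aliquots were heated for 3 min across 48°C-58°C, pooled, brought to 0.5% NP-40 at 4°C and spun at 21,000xg for 90 min, with the supernatant taken as soluble protein. TMTpro 16plex LC-MS/MS with equalised channel sums quantified that protein. Values are log-two fold changes in thermal stability relative to solvent controls, taken from duplicates.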

Amino acid sequences for entries named in this document (tags omitted). A change or cut given only in a name is not applied to a line headed by its entry.
UniProt Q15102: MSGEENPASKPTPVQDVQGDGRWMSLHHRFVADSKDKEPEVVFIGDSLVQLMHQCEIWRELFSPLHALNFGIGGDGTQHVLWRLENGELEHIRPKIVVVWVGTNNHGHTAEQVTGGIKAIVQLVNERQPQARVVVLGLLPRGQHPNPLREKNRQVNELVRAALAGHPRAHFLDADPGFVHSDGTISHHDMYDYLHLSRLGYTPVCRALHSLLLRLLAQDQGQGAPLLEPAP
UniProt O96013: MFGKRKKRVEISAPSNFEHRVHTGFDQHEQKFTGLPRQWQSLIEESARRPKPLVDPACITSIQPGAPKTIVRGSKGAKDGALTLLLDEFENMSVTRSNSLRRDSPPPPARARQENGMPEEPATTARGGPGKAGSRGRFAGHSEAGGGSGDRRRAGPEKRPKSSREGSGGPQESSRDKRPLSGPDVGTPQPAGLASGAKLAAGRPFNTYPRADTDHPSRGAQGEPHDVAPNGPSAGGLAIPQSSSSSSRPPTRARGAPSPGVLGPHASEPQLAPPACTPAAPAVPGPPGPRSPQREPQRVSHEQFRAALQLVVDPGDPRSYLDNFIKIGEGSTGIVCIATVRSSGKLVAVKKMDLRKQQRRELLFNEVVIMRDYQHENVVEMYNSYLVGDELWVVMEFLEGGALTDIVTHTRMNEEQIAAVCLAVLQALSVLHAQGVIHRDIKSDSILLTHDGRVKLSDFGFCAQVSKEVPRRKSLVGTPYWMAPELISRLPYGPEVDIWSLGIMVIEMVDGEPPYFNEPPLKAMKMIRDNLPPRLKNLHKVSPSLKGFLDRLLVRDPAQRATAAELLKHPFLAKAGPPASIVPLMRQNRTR
UniProt Q504Q3: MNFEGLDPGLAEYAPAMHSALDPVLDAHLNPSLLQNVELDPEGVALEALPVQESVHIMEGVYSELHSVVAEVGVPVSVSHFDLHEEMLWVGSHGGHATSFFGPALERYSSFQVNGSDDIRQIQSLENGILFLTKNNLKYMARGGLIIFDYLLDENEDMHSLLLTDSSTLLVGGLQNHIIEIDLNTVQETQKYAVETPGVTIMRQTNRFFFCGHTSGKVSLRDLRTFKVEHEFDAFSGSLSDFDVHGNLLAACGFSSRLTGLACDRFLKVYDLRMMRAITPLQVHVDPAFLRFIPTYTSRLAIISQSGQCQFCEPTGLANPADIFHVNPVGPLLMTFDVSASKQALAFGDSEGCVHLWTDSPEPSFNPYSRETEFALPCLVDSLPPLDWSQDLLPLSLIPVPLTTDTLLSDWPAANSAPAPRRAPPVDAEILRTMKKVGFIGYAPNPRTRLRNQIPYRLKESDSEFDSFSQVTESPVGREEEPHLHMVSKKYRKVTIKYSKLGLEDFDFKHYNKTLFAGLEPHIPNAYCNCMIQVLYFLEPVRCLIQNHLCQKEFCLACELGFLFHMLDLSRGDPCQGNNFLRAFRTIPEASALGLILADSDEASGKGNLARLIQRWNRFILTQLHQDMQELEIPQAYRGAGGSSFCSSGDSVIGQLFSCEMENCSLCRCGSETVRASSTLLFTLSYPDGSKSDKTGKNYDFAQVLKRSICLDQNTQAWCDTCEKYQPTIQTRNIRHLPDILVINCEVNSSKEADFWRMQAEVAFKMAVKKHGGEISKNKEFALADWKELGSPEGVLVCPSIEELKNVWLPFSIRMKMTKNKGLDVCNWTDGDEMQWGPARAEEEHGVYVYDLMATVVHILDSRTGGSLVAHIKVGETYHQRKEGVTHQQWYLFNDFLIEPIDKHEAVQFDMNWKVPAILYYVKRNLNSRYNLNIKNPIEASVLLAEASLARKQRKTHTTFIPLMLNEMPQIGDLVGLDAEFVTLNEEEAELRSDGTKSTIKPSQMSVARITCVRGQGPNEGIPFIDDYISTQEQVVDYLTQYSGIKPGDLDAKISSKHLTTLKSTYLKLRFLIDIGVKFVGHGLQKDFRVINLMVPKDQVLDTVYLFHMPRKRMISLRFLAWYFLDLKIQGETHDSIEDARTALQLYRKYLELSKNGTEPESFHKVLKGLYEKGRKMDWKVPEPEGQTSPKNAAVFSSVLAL
UniProt Q9H1P3, whole entry, looked up: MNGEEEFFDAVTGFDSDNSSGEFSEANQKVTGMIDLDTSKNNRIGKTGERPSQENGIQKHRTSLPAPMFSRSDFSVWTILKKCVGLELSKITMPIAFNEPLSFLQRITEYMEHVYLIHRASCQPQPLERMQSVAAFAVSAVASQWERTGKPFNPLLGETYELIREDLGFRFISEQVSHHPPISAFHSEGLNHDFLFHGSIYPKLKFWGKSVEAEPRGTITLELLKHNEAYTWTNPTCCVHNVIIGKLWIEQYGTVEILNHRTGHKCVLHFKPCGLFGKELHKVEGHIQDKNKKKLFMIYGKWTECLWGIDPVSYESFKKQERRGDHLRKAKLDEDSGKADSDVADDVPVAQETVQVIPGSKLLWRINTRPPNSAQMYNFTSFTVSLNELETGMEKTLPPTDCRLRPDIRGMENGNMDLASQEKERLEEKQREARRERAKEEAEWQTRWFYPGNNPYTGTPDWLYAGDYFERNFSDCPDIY
UniProt Q9BVL2: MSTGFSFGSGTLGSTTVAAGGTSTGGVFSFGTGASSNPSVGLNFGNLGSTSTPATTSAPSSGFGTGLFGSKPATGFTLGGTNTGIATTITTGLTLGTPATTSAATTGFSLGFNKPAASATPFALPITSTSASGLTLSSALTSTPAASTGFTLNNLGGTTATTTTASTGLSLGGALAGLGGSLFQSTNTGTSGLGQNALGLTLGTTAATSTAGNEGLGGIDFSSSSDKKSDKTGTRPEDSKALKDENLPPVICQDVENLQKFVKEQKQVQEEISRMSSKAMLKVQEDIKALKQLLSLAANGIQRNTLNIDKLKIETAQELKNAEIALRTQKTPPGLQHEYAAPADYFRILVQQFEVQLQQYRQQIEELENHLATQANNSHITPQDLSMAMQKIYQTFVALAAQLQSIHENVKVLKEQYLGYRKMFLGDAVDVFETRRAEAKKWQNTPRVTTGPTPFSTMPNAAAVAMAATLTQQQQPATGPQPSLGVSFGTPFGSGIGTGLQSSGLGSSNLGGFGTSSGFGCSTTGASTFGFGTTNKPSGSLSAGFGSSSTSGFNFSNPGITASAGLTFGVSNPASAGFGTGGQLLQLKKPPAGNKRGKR
UniProt Q86WC4: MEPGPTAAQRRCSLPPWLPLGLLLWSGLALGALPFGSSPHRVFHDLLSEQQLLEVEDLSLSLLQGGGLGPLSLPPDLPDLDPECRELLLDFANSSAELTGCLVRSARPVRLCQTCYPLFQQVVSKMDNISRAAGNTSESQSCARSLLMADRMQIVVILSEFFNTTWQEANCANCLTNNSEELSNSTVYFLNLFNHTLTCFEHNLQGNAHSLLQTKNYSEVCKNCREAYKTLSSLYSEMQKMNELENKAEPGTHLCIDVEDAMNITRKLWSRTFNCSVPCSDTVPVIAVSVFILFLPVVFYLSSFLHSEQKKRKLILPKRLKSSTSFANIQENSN
UniProt O15294: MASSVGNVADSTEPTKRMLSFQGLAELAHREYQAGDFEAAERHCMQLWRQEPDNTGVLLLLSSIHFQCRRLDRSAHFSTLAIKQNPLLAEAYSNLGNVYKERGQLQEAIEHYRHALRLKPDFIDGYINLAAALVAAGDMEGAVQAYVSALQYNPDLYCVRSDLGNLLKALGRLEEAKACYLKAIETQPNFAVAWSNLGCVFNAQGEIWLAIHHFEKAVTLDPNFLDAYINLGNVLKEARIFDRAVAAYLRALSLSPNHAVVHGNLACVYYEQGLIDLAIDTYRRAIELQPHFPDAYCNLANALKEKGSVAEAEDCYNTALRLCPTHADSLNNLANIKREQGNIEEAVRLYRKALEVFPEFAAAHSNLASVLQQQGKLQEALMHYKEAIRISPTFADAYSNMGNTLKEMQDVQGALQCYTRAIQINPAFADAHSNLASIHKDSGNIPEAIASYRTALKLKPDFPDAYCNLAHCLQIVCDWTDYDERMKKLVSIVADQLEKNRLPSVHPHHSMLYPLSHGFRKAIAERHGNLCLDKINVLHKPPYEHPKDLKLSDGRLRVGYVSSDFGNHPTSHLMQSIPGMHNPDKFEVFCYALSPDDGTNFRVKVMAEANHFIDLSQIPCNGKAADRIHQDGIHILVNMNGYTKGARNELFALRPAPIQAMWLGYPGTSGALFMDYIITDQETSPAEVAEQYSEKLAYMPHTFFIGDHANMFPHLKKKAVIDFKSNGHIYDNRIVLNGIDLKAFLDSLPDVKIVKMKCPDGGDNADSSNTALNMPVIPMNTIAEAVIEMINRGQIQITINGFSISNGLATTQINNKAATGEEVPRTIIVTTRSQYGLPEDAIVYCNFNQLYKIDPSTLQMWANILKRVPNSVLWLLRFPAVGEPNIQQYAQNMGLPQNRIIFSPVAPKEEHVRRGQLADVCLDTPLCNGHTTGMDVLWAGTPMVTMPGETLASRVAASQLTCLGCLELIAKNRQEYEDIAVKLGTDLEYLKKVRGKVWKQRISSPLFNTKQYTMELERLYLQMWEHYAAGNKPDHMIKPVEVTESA
UniProt Q9NP74: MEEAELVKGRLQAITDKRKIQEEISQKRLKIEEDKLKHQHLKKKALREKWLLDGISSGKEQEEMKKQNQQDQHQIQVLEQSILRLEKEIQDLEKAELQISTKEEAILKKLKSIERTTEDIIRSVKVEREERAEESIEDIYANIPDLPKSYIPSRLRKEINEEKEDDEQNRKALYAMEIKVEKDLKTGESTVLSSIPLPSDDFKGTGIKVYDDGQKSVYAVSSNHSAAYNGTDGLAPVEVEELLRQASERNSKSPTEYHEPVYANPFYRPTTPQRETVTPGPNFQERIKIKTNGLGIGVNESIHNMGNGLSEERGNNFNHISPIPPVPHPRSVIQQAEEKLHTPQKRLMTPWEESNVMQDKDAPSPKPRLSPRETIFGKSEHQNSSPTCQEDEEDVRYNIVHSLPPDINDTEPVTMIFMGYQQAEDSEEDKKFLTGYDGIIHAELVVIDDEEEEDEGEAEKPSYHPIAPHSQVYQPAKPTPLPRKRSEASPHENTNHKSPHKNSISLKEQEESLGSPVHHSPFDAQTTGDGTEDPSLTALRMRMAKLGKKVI
UniProt Q9BTK6, whole entry, looked up: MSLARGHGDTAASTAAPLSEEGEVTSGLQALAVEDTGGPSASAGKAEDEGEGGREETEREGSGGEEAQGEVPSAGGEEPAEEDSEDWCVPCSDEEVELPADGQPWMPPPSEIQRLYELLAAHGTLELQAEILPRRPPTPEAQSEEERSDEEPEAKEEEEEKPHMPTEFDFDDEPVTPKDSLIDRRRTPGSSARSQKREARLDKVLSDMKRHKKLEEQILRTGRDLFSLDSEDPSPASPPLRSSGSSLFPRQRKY
UniProt Q02218: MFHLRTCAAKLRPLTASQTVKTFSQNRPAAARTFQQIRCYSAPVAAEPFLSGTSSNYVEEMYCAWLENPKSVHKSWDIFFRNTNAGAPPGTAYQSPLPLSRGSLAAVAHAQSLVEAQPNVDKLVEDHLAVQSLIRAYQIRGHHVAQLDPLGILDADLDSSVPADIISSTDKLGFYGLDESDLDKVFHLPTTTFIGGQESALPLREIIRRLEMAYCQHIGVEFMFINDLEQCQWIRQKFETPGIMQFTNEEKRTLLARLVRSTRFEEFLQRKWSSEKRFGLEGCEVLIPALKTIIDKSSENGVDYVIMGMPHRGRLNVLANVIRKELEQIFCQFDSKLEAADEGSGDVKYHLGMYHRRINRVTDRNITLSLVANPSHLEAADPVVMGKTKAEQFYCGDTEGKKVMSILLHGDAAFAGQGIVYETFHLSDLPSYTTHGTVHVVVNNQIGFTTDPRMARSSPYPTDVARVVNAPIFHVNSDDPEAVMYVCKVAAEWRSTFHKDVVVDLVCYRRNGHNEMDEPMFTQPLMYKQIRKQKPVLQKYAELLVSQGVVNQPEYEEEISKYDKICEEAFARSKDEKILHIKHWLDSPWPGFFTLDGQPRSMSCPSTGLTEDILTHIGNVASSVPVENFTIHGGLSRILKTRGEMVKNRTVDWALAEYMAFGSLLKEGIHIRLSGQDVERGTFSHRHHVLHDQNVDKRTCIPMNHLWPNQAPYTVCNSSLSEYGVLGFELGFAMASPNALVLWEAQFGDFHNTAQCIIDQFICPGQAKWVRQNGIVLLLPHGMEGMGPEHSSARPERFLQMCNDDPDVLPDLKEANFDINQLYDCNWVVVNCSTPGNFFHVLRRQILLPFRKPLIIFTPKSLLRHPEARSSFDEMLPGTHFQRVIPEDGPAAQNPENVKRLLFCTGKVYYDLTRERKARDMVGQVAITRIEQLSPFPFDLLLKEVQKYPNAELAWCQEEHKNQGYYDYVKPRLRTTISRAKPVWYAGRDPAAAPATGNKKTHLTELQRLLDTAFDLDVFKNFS

[1] = compound: CC(=O)c1cnc2ccc(-c3cc(Cl)c(O)c(Cl)c3)nc2c1N[C@H]1CC[C@H](CN(C)C)CC1
Outline: as §1

ralimetinib = compound: CC(C)(C)Cn1c(N)nc2ccc(-c3[nH]c(C(C)(C)C)nc3-c3ccc(F)cc3)nc21 [ralimetinib]
Outline: as §1

[2] = compound: CC(C)(O)CC(=O)NCCn1ccc2ncnc(Nc3ccc(Oc4cccc(C(F)(F)F)c4)c(Cl)c3)c21
Outline: as §1

[3] = compound: CC(C)C1=C2N=C(C=C(N2N=C1)NCC3=CC=CC=C3)NCCCCCCN
Outline: as §1

[4] = compound: CC1=C(C(CC(=O)N1)C2=CC=C(C=C2)C(F)(F)F)C(=O)NC3=C(C=C4C(=C3)C=NN4)F
Outline: as §1

[5] = compound: CC1=C(C2=C(C=C1)C(=O)C3=CC=CC=C3N2CCCN)C
Outline: as §1

[6] = compound: CC1=C(C=C(C=C1)NC(=O)C2=CC(=CC=C2)C(C)(C)C#N)NC3=CC4=C(C=C3)N=CN(C4=O)C
Outline: as §1

[7] = compound: CC1=C(C=C(C=C1)NC(=O)C2=CC(=CC=C2)N(C)C)NC(=O)C3=CC=C(C=C3)O
Outline: as §1

[8] = compound: CC1=CC=C(C=C1)SC2=C3C=C(SC3=CN=C2)C(=O)N
Outline: as §1

Measured: log2 fold change

PAFAH1B3 (UniProt Q15102)
inactive: ibrutinib 0.073 | [1] -0.004 | ralimetinib 0.003 | [2] -0.01 | [3] 0.015 | [4] -0.026 | [5] 0.014 | [6] -0.002 | [7] 0.02 | [8] 0.006

PALM3 (UniProt A6NDB9)
inactive: ibrutinib 0.015 | [1] -0.007 | ralimetinib 0.005 | [2] 0.033 | [3] -0.05 | [4] 0.027 | [5] 0.005 | [6] 0.019 | [7] 0.002 | [8] -0.058

PAK4 (UniProt O96013)
inactive: ibrutinib 0.049 | [1] 0.372 | ralimetinib -0.016 | [2] -0.001 | [3] -0.102 | [4] 0.023 | [5] -0.087 | [6] -0.064 | [7] -0.012 | [8] 0.034

PAIP1 (UniProt Q9H074)
inactive: ibrutinib 0.005 | [1] 0.001 | ralimetinib -0.003 | [2] 0.012 | [3] -0.006 | [4] -0.004 | [5] 0.004 | [6] 0.001 | [7] -0.009 | [8] -0.021

PAN2 isoform 2 (UniProt Q504Q3)
inactive: ibrutinib -0.141 | [1] 0.036 | ralimetinib 0.022 | [2] -0.022 | [3] -0.025 | [4] 0.022 | [5] 0.015 | [6] 0.012 | [7] -0.038 | [8] 0.027

OSBPL2 (UniProt Q9H1P3)
inactive: ibrutinib 0.033 | [1] -0.042 | ralimetinib -0.008 | [2] -0.054 | [3] -0.009 | [4] 0 | [5] 0.03 | [6] -0.079 | [7] 0.021 | [8] 0.012

NUP58 (UniProt Q9BVL2)
inactive: ibrutinib 0.004 | [1] 0 | ralimetinib -0.005 | [2] -0.047 | [3] -0.009 | [4] 0.052 | [5] 0.006 | [6] -0.058 | [7] -0.01 | [8] -0.022

OSBPL6 isoform 5 (UniProt Q9BZF3)
inactive: ibrutinib 0.118 | [1] -0.031 | ralimetinib 0.23 | [2] -0.042 | [3] 0.098 | [4] -0.032 | [5] 0.016 | [6] 0.015 | [7] -0.013 | [8] 0.01

NUSAP1 (UniProt Q9BXS6)
inactive: ibrutinib -0.003 | [1] -0.022 | ralimetinib 0.023 | [2] -0.014 | [3] -0.006 | [4] -0.02 | [5] -0.017 | [6] -0.004 | [7] 0.016 | [8] -0.023

OSTM1 (UniProt Q86WC4)
inactive: ibrutinib -0.038 | [1] 0.019 | ralimetinib -0.07 | [2] 0.012 | [3] -0.04 | [4] 0.006 | [5] 0.034 | [6] -0.093 | [7] 0.065 | [8] 0

PAPOLA (UniProt P51003)
inactive: ibrutinib 0.002 | [1] -0.007 | ralimetinib -0.01 | [2] -0.016 | [3] -0.003 | [4] -0.004 | [5] 0.006 | [6] -0.036 | [7] 0.006 | [8] 0.017

PANK4 (UniProt Q9NVE7)
inactive: ibrutinib 0.039 | [1] 0.001 | ralimetinib 0.023 | [2] -0.008 | [3] 0.036 | [4] -0.01 | [5] -0.024 | [6] -0.001 | [7] -0.005 | [8] -0.005

OGFOD3 (UniProt Q6PK18)
inactive: ibrutinib 0.138 | [1] -0.041 | ralimetinib 0 | [2] 0.019 | [3] -0.001 | [4] 0.155 | [5] -0.021 | [6] -0.068 | [7] -0.004 | [8] -0.068

ORC4 (UniProt O43929)
inactive: ibrutinib -0.033 | [1] 0.022 | ralimetinib 0.004 | [2] 0.001 | [3] 0.032 | [4] 0.01 | [5] -0.01 | [6] -0.029 | [7] 0.02 | [8] 0.032

PARD6B (UniProt Q9BYG5)
inactive: ibrutinib -0.011 | [1] -0.008 | ralimetinib 0.007 | [2] -0.006 | [3] -0.003 | [4] 0.023 | [5] 0.009 | [6] 0.058 | [7] -0.02 | [8] 0.016

OGT (UniProt O15294)
inactive: ibrutinib -0.035 | [1] -0.024 | ralimetinib 0.021 | [2] 0.023 | [3] -0.007 | [4] -0.009 | [5] -0.026 | [6] -0.014 | [7] 0.032 | [8] -0.005

OLA1 (UniProt Q9NTK5)
inactive: ibrutinib 0.009 | [1] -0.002 | ralimetinib 0.015 | [2] 0.03 | [3] 0.02 | [4] -0.023 | [5] 0.023 | [6] -0.004 | [7] 0.029 | [8] 0.014

PALMD (UniProt Q9NP74)
inactive: ibrutinib 0.093 | [1] 0.089 | ralimetinib 0.013 | [2] 0.172 | [3] -0.071 | [4] 0.047 | [5] 0.044 | [6] -0.023 | [7] 0.036 | [8] -0.024

Random excerpt: 2 entries already listed
OSTM1 (UniProt Q86WC4)
inactive: ibrutinib -0.038 | [1] 0.019 | ralimetinib -0.07 | [2] 0.012 | [3] -0.04 | [4] 0.006 | [5] 0.034 | [6] -0.093 | [7] 0.065 | [8] 0

OLA1 (UniProt Q9NTK5)
inactive: ibrutinib 0.009 | [1] -0.002 | ralimetinib 0.015 | [2] 0.03 | [3] 0.02 | [4] -0.023 | [5] 0.023 | [6] -0.004 | [7] 0.029 | [8] 0.014

Following part

PAF1 (UniProt Q8N7H5)
inactive: ibrutinib 0.023 | [1] 0.015 | ralimetinib 0.005 | [2] -0.029 | [3] -0.012 | [4] -0.041 | [5] -0.007 | [6] 0.012 | [7] -0.001 | [8] 0.005

PAGR1 (UniProt Q9BTK6)
inactive: ibrutinib 0.022 | [1] 0.106 | ralimetinib 0.055 | [2] 0.054 | [3] 0.254 | [4] 0.029 | [5] 0.061 | [6] 0.008 | [7] -0.053 | [8] -0.113

NXF1 (UniProt Q9UBU9)
inactive: ibrutinib 0.017 | [1] 0.021 | ralimetinib 0.043 | [2] -0.028 | [3] 0.067 | [4] -0.001 | [5] -0.028 | [6] -0.022 | [7] 0.009 | [8] 0.036

OSBPL11 (UniProt Q9BXB4)
inactive: ibrutinib 0.02 | [1] 0.056 | ralimetinib 0.07 | [2] 0.003 | [3] -0.011 | [4] -0.009 | [5] -0.056 | [6] -0.023 | [7] -0.016 | [8] -0.101

OGDH (UniProt Q02218)
inactive: ibrutinib 0.016 | [1] 0 | ralimetinib -0.016 | [2] -0.025 | [3] -0.032 | [4] 0.032 | [5] 0.012 | [6] -0.026 | [7] 0.018 | [8] 0.013

NUP88 (UniProt Q99567)
inactive: ibrutinib -0.022 | [1] -0.002 | ralimetinib -0.032 | [2] -0.022 | [3] 0.031 | [4] 0.012 | [5] 0.036 | [6] -0.084 | [7] -0.036 | [8] -0.006

NUP93 (UniProt Q8N1F7)
inactive: ibrutinib -0.013 | [1] 0.007 | ralimetinib 0.036 | [2] -0.015 | [3] 0 | [4] 0.027 | [5] 0.019 | [6] -0.029 | [7] 0.036 | [8] 0

PABPC4 isoform 3 (UniProt Q13310)
inactive: ibrutinib -0.011 | [1] -0.027 | ralimetinib -0.008 | [2] 0.022 | [3] -0.019 | [4] -0.019 | [5] -0.002 | [6] -0.038 | [7] -0.003 | [8] 0.03

OTUD5 isoform 5 (UniProt Q96G74)
inactive: ibrutinib 0.007 | [1] -0.014 | ralimetinib -0.018 | [2] -0.038 | [3] -0.047 | [4] 0.04 | [5] 0.012 | [6] 0.037 | [7] 0.039 | [8] -0.038

Source: the supplement of paper PMC10849652
